For the test, the target named is T1, SET8 (human (endogenous in HUVECs)) (UniProt Q9NQR1).
T1 sequence: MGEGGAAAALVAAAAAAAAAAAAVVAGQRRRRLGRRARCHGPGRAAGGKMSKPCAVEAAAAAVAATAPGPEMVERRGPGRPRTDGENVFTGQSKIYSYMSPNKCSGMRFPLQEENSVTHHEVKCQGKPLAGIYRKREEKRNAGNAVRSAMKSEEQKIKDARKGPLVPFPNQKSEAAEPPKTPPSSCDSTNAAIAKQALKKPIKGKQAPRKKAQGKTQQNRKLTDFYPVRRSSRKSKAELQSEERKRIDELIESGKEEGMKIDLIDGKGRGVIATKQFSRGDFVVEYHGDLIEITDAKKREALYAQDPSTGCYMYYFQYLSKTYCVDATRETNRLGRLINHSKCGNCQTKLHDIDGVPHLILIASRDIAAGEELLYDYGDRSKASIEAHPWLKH
Description: co-IP; endogenous IP from HUVEC cell extracts; primary antibodies and protein A/G Dynabeads, 4 °C overnight; input, IgG and IP extracts analysed by western blot. In general terms: A western blot detects proteins with antibodies after separation by electrophoresis.

The chains behind the UniProt entries cited, without tags or fusion partners.
UniProt Q12778: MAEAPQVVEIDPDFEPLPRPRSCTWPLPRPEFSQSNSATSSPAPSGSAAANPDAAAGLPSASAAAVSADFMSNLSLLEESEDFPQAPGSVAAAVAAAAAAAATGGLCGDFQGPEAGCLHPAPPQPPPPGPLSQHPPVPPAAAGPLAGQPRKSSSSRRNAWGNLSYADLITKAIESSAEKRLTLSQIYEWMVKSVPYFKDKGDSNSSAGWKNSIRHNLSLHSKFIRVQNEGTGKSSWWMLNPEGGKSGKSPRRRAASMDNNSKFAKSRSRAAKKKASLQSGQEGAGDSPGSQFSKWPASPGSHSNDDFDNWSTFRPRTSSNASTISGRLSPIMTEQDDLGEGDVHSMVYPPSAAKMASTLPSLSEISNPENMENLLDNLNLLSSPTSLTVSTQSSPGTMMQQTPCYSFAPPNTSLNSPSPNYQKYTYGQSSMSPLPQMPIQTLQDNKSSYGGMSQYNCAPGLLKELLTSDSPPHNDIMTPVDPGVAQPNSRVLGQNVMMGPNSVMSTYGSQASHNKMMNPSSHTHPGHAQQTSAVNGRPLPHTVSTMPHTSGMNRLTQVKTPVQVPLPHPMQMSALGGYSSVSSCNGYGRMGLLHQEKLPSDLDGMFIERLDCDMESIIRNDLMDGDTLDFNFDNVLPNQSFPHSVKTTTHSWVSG

These are yes or no findings as the source states them, for the method shown. Binding seen in cells or lysates may run through a third protein. Some results given as binding are weak or reduced against the parent protein; the word gives no strength.

Turning to “forkhead box protein O1 (FOXO1) (from UniProt Q12778 1-655)”, the binding entry was “binds”.

The record behind these values is paper PMC8080680.
